Data: PubChem BioAssay AID328 (DTP/NCI, 2004)
The list is a part of this screen's results and no random one: it gathers some chemical classes. Not every dose and run of a compound is shown. T/C is the treated group as % of the vehicle group. Where survival is the endpoint, the PubChem record calls one and a half times the control and up active, and a quarter to a half above the control has no call in these data; cut-offs in other NCI protocols can differ. Schedules are NCI's codes, taken here to give the interval after Q, in days (D) or hours (H), and the number of doses after X. Some T/C values are marked as having no survivor count here; that says nothing about deaths at the dose. Some entries were tested several times; the values are given in rising order.

Tested on: BDF1 mice, P388 leukemia ip, median survival T/C
Test: NCI In Vivo Anticancer Drug Screen. Data for tumor model P388 Leukemia (intraperitoneal) in B6D2F1 (BDF1) mice
Settings: T/C endpoint: median survival time, higher T/C = longer survival
Description: The antitumor activity of compounds was measured in mice bearing transplantable tumors. Survival or tumor size were measured and the results are expressed as the measurement made in the treated group (T) divided by the measurement made in the vehicle treated control group (C). The tumor model used in this assay is P388 Leukemia (intraperitoneal) in B6D2F1 (BDF1) mice

In the case of CC(=O)OCC12CCC(C)=CC1OC1C(O)C(OC(C)=O)C2(C)C12CO2 (centres undefined), the T/C (dose: 0.13 mg/kg/injection, schedule: Q01DX001 (ip), vehicle: saline) is reported as 109 % of control [survivor count not shown], the T/C (dose: 0.25 mg/kg/injection, schedule: Q01DX001 (ip), vehicle: saline) is reported as 104 % of control [survivor count not shown] and the T/C (dose: 0.25 mg/kg/injection, schedule: Q01DX009 (ip), vehicle: saline) is reported as 159 [survivor count not shown] and 195 % of control [survivor count not shown]. The T/C (dose: 0.5 mg/kg/injection, schedule: Q01DX001 (ip), vehicle: saline) was 118 % of control [survivor count not shown], the T/C (dose: 0.5 mg/kg/injection, schedule: Q01DX009 (ip), vehicle: saline) was 186 [survivor count not shown] and 225 % of control [survivor count not shown] and the T/C (dose: 0.5 mg/kg/injection, schedule: Q01DX009 (sc), vehicle: saline) was 120 % of control [survivor count not shown]. The T/C (dose: 0.5 mg/kg/injection, schedule: Q01DX010 (ip), vehicle: saline) was 190 % of control [survivor count not shown], the T/C (dose: 0.67 mg/kg/injection, schedule: Q01DX009 (ip), vehicle: water) was 180 [survivor count not shown] and 185 % of control [survivor count not shown] and the T/C (dose: 1.0 mg/kg/injection, schedule: Q01DX001 (ip), vehicle: saline) was 109 % of control [survivor count not shown]. The T/C (dose: 1.0 mg/kg/injection, schedule: Q01DX009 (ip), vehicle: saline) was 245 % of control [survivor count not shown], the T/C (dose: 1.0 mg/kg/injection, schedule: Q01DX009 (sc), vehicle: saline) was 158 % of control [survivor count not shown] and the T/C (dose: 1.0 mg/kg/injection, schedule: Q01DX010 (ip), vehicle: saline) was 219 % of control [survivor count not shown]. For the same compound, the T/C (dose: 1.08 mg/kg/injection, schedule: Q01DX009 (ip), vehicle: saline + alcohol) was 172 % of control [survivor count not shown], the T/C (dose: 1.25 mg/kg/injection, schedule: Q01DX009 (ip), vehicle: water) was 190 [survivor count not shown] and 220 % of control [survivor count not shown] and the T/C (dose: 1.3 mg/kg/injection, schedule: Q04DX003 (sc), vehicle: saline + alcohol) was 144 % of control [survivor count not shown]. For the same compound, the T/C (dose: 1.8 mg/kg/injection, schedule: Q01DX009 (ip), vehicle: saline + alcohol) was 184 % of control [survivor count not shown], the T/C (dose: 2.0 mg/kg/injection, schedule: Q01DX001 (ip), vehicle: saline, evaluated on day 30) was 100 % of control [survivor count not shown] and the T/C (dose: 2.0 mg/kg/injection, schedule: Q01DX001 (ip), vehicle: saline, evaluated on day 60) was 122 % of control [survivor count not shown]. The T/C (dose: 2.0 mg/kg/injection, schedule: Q01DX009 (ip), vehicle: saline) was 209 [survivor count not shown] and 245 % of control [survivor count not shown], the T/C (dose: 2.0 mg/kg/injection, schedule: Q01DX009 (sc), vehicle: saline) was 150 % of control [survivor count not shown] and the T/C (dose: 2.0 mg/kg/injection, schedule: Q01DX010 (ip), vehicle: saline) was 223 % of control [survivor count not shown]. The T/C (dose: 2.0 mg/kg/injection, schedule: Q04DX003 (ip), vehicle: saline, evaluated on day 35) was 153 % of control [survivor count not shown], the T/C (dose: 2.0 mg/kg/injection, schedule: Q04DX003 (ip), vehicle: saline, evaluated on day 60) was 127 % of control [survivor count not shown] and the T/C (dose: 2.0 mg/kg/injection, schedule: Q08DX002 (ip), vehicle: saline) was 127 % of control [survivor count not shown]. For the same compound, the T/C (dose: 2.16 mg/kg/injection, schedule: Q04DX003 (sc), vehicle: saline + alcohol) was 156 % of control [survivor count not shown], the T/C (dose: 2.5 mg/kg/injection, schedule: Q01DX009 (ip), vehicle: water) was 210 [survivor count not shown] and 220 % of control [survivor count not shown] and the T/C (dose: 2.5 mg/kg/injection, schedule: Q04DX002 (ip), vehicle: saline + alcohol) was 118 % of control [survivor count not shown]. The T/C (dose: 2.88 mg/kg/injection, schedule: Q04DX003 (ip), vehicle: saline + alcohol) was 94 [survivor count not shown] and 148 % of control [survivor count not shown], the T/C (dose: 3.0 mg/kg/injection, schedule: Q01DX009 (ip), vehicle: saline + alcohol) was 193 % of control [survivor count not shown] and the T/C (dose: 3.24 mg/kg/injection, schedule: Q04DX003 (ip), vehicle: other) was 150 % of control [survivor count not shown]. The T/C (dose: 4.0 mg/kg/injection, schedule: Q01DX001 (ip), vehicle: saline, evaluated on day 30) was 127 % of control [survivor count not shown], the T/C (dose: 4.0 mg/kg/injection, schedule: Q01DX001 (ip), vehicle: saline, evaluated on day 60) was 118 % of control [survivor count not shown] and the T/C (dose: 4.0 mg/kg/injection, schedule: Q01DX001 (oral), vehicle: saline) was 116 % of control [survivor count not shown]. The T/C (dose: 4.0 mg/kg/injection, schedule: Q01DX001 (sc), vehicle: saline) was 108 % of control [survivor count not shown], the T/C (dose: 4.0 mg/kg/injection, schedule: Q01DX009 (ip), vehicle: saline) was 95 [survivor count not shown] and 163 % of control [survivor count not shown] and the T/C (dose: 4.0 mg/kg/injection, schedule: Q04DX003 (ip), vehicle: saline, evaluated on day 60) was 110 [survivor count not shown] and 136 % of control [survivor count not shown]. For the same compound, the T/C (dose: 4.0 mg/kg/injection, schedule: Q08DX002 (ip), vehicle: saline) was 136 % of control [survivor count not shown], the T/C (dose: 4.32 mg/kg/injection, schedule: Q04DX003 (ip), vehicle: saline + alcohol) was 141 [survivor count not shown] and 142 % of control [survivor count not shown] and the T/C (dose: 4.7 mg/kg/injection, schedule: Q01DX009 (ip), vehicle: saline with Tween-80) was 214 % of control [survivor count not shown]. The T/C (dose: 4.8 mg/kg/injection, schedule: Q04DX003 (ip), vehicle: saline + alcohol) was 138 [survivor count not shown] and 153 % of control [survivor count not shown], the T/C (dose: 5.4 mg/kg/injection, schedule: Q04DX003 (ip), vehicle: other) was 117 % of control [survivor count not shown] and the T/C (dose: 7.0 mg/kg/injection, schedule: Q01DX009 (ip), vehicle: saline with Tween-80) was 102 % of control [survivor count not shown]. For the same compound, the T/C (dose: 7.2 mg/kg/injection, schedule: Q04DX003 (ip), vehicle: saline + alcohol) was 152 [survivor count not shown], 157 [survivor count not shown], 163 % of control [survivor count not shown], the T/C (dose: 8.0 mg/kg/injection, schedule: Q01DX001 (oral), vehicle: saline) was 133 % of control [survivor count not shown] and the T/C (dose: 8.0 mg/kg/injection, schedule: Q04DX003 (ip), vehicle: saline + alcohol) was 138 [survivor count not shown] and 159 % of control [survivor count not shown]. The T/C (dose: 8.0 mg/kg/injection, schedule: Q04DX003 (ip), vehicle: saline, evaluated on day 35) was 161 % of control [survivor count not shown], the T/C (dose: 8.0 mg/kg/injection, schedule: Q04DX003 (ip), vehicle: saline, evaluated on day 60) was 105 [survivor count not shown] and 150 % of control [survivor count not shown] and the T/C (dose: 8.7 mg/kg/injection, schedule: Q01DX001 (ip), vehicle: saline with Tween-80) was 124 % of control [survivor count not shown]. The T/C (dose: 9.0 mg/kg/injection, schedule: Q04DX003 (ip), vehicle: other) was 97 % of control [survivor count not shown], the T/C (dose: 10.0 mg/kg/injection, schedule: Q04DX002 (ip), vehicle: saline + alcohol) was 135 % of control [survivor count not shown] and the T/C (dose: 10.5 mg/kg/injection, schedule: Q01DX009 (ip), vehicle: saline with Tween-80) was 86 % of control [survivor count not shown]. The T/C (dose: 12.0 mg/kg/injection, schedule: Q04DX003 (ip), vehicle: saline + alcohol) was 144 [survivor count not shown] and 159 % of control [survivor count not shown], the T/C (dose: 13.33 mg/kg/injection, schedule: Q04DX003 (ip), vehicle: saline + alcohol) was 151 % of control [survivor count not shown] and the T/C (dose: 16.0 mg/kg/injection, schedule: Q04DX003 (ip), vehicle: saline, evaluated on day 60) was 130 % of control [survivor count not shown]. For the same compound, the T/C (dose: 20.0 mg/kg/injection, schedule: Q04DX003 (ip), vehicle: saline + alcohol) was 88 % of control [survivor count not shown], the T/C (dose: 62.5 micrograms/kg/injection, schedule: Q03HX008 (ip), vehicle: saline) was 127 % of control [survivor count not shown] and the T/C (dose: 62.5 micrograms/kg/injection, schedule: Q03HX016 (ip), vehicle: saline) was 136 % of control [survivor count not shown]. For the same compound, the T/C (dose: 62.5 micrograms/kg/injection, schedule: Q03HX024 (ip), vehicle: saline) was 140 % of control [survivor count not shown], the T/C (dose: 125.0 micrograms/kg/injection, schedule: Q03HX008 (ip), vehicle: saline) was 136 % of control [survivor count not shown] and the T/C (dose: 125.0 micrograms/kg/injection, schedule: Q03HX024 (ip), vehicle: saline) was 172 % of control [survivor count not shown]. The T/C (dose: 250.0 micrograms/kg/injection, schedule: Q03HX008 (ip), vehicle: saline) was 136 % of control [survivor count not shown], the T/C (dose: 250.0 micrograms/kg/injection, schedule: Q03HX016 (ip), vehicle: saline) was 163 % of control [survivor count not shown] and the T/C (dose: 500.0 micrograms/kg/injection, schedule: Q03HX008 (ip), vehicle: saline) was 136 % of control [survivor count not shown]. The T/C (dose: 500.0 micrograms/kg/injection, schedule: Q03HX016 (ip), vehicle: saline) was 163 % of control [survivor count not shown], the T/C (dose: 778.0 micrograms/kg/injection, schedule: Q04DX003 (ip), vehicle: saline + alcohol) was 130 % of control [survivor count not shown] and the T/C (dose: 1300.0 micrograms/kg/injection, schedule: Q04DX003 (ip), vehicle: saline + alcohol) was 163 % of control [survivor count not shown]. For the same compound, the T/C (dose: 2160.0 micrograms/kg/injection, schedule: Q04DX003 (ip), vehicle: saline + alcohol) was 145 % of control [survivor count not shown], the T/C (dose: 3600.0 micrograms/kg/injection, schedule: Q04DX003 (ip), vehicle: saline + alcohol) was 149 % of control [survivor count not shown] and the T/C (dose: 6000.0 micrograms/kg/injection, schedule: Q04DX003 (ip), vehicle: saline + alcohol) was 170 % of control [survivor count not shown].
